Some of the results follow. These are further read-outs of the screen, such as a control signal, another cell line or another target. No call is given for them. Compounds called inactive in the main read-out are mostly missing here. The note in brackets gives the kind of curve behind each potency; many fits are weak.
Assay: qHTS Assay for Lipid Storage Modulators in Drosophila S3 Cells;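 for cell number change: cells counted by Cell Tracker Red CMTPX staining in the red channel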
Details: BODIPY lipid droplet fluorescence, 18-24 h; for cell number change: measured here: cell count max response, cells fed with added oleic acid
How it was run: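 Laser-scanning cytometry quantifies lipid droplet accumulation (500–530 nm total intensity; droplet/cell object ratio) in oleic acid-fed (400 uM added) Drosophila S3 cells treated with a concentration series. 20 uM Triacsin C defined 100% inhibition.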

[1] = measured here: lipid fluorescence (Fed channel) AC50, cells fed with added oleic acid
[2] = measured here: cell number channel AC50, cells fed with added oleic acid

Row | SMILES | cell number change | AC50 [1] | AC50 [2]
1 | O=C(CCSc1ccc(Cl)c(Cl)c1)NC12CC3CC(CC(C3)C1)C2 | 1.44% | 29.1 µM [falling, single point] | –
2 | COc1cccc(OCc2nnc(SCC(=O)N3c4ccccc4Sc4ccc(Cl)cc43)o2)c1 | 4.11% | – | –
3 | COc1ccc(-c2c(C)nn3c(N)c(-c4ccccc4)cnc23)cc1OC | -41.9% | – | 20.6 µM [falling, single point]
4 | COc1ccc(C2CC(=O)C(C=NCCN3CCOCC3)=C(O)C2)cc1 (stereo not given) | -10.7% | – | –
5 | COc1ccccc1N1CN(CCc2ccccc2)CNC1=S | 5.15% | 29.1 µM [rising, single point] | –
6 | CCn1c(C)c(C(C)=O)c(N2CCC(C(N)=O)CC2)nc1=S | -5.04% | – | –
7 | CCN(CC)CCCN1C(=O)c2oc3ccccc3c(=O)c2C1c1cccc(OC)c1OC (stereo not given) | 10.5% | 29.1 µM [falling, single point] | –
8 | CCn1cc(C(=O)NCc2ccc(C)cc2)c(=O)c2cc(S(=O)(=O)N(C)C)ccc21 | -44.1% | 14.6 µM [falling, partial curve] | 18.4 µM [falling, single point]
9 | CCn1nnnc1-c1ccc(OC)c(S(=O)(=O)N2CCCCC2)c1 | – | 8.2 µM [rising, partial curve] | –
10 | NS(=O)(=O)c1ccc(NC(=S)N2CCN(c3ccc(Cl)c(Cl)c3)CC2)cc1 | -34.1% | – | 29.1 µM [falling, single point]
11 | CC(C)n1c(SCC(=O)NC2CCCCC2)nnc1-c1ccco1 | -3.42% | – | –
12 | Brc1ccc(OCCCCN2CCCCC2)cc1 | 12.3% | 6.51 µM [falling, single point] | –
13 | CCn1c(SCC(=O)Nc2cccc(C)n2)nnc1-c1ccco1 | 7.79% | 2.31 µM [rising, partial curve] | 2.31 µM [rising, partial curve]
14 | COc1ccccc1-n1c(CNC(=O)c2ccc(S(=O)(=O)N3CCCCC3)cc2)n[nH]c1=S | -23.2% | 29.1 µM [falling, single point] | –
15 | Cc1nn(C)c(C)c1S(=O)(=O)N1CCC(C(=O)NC2CCCc3ccccc32)CC1 (stereo not given) | 6.44% | 0.103 µM [falling, full curve, poor fit] | –
16 | O=C(COC(=O)C1CCC(=O)N1)Nc1ccccc1Br (stereo not given) | -9.52% | – | 0.461 µM [rising, full curve, poor fit]
17 | Cc1ccc(-c2cc(C(=O)N/N=C/c3c(C)nn(-c4ccccc4)c3C)[nH]n2)cc1 | 43.7% | 18.4 µM [rising, single point] | 16.4 µM [rising, single point]
18 | Cc1ccccc1NC(=O)CN1C(=O)N/C(=C\c2ccccc2OCc2ccc(C(=O)O)cc2)C1=O | 18.1% | 29.1 µM [rising, single point] | –
19 | CCc1c(C)nc2ncnn2c1N1CCC(C(=O)N2CCN(c3ccc(F)cc3)CC2)CC1 | -18% | 0.731 µM [rising, single point] | –
20 | Cn1nc([N+](=O)[O-])nc1Sc1ccc(C(C)(C)C)cc1 | -26.3% | – | –
21 | CC(C)(C)CC(=O)N1CCN(Cc2ccc3c(c2)OCO3)CC1 | 8.45% | – | –

Row | SMILES | cell number change | AC50 [1] | AC50 [2]
22 | CC(=O)c1ccc(NC(=O)CN2CCN(CC(=O)Nc3ccc(C(C)=O)cc3)CC2)cc1 | -20.8% | – | –
23 | O=[N+]([O-])c1cccc(-c2nc(Oc3ccc(Cl)cc3)c3ccccc3n2)c1 | 118% | 6.51 µM [rising, single point] | 3.66 µM [rising, full curve]
24 | O=C(NCCc1ccccn1)c1nc(Cn2cc(Br)cn2)no1 | 25.7% | – | –
25 | O=C(NNC(=O)c1ccccc1F)C1=NN(c2ccccc2)C(=O)CC1 | 3.33% | – | –
26 | C=CCOc1cccc(/C=N/NC(=O)CC(=O)NC2CCCCC2)c1 | -2.64% | 3.66 µM [rising, partial curve, poor fit] | –
27 | CSc1nc(-c2ccccc2)c(C#N)c(=O)n1C | 20.2% | 9.2 µM [rising, partial curve, poor fit] | –
28 | Cc1nn(-c2ccccc2)c(Cl)c1/C=C/C(=O)c1ccccc1 | -9.59% | 29.1 µM [rising, single point] | 0.00461 µM [falling, full curve, poor fit]
29 | Cc1c(C)[n+](=O)c(-c2ccc(F)cc2)c(C)n1[O-] | -18% | 0.058 µM [falling, full curve] | –
30 | CC(OC(=O)CCC(=O)c1cccs1)C(=O)Nc1ccc(Cl)cn1 (stereo not given) | -4.06% | – | –
31 | CNC(=O)c1ccc(NC(=O)C2CCN(S(=O)(=O)c3cccc(C(F)(F)F)c3)CC2)cc1 | -2.54% | 0.184 µM [rising, full curve, poor fit] | –
32 | Cc1ccc(Cn2c(SC3CCOC3=O)nc3ccccc3c2=O)cc1 (stereo not given) | 107% | – | 29.1 µM [rising, single point]
33 | COc1ccc(CCNC(=O)C23CCC(C)(C(=O)C2=O)C3(C)C)cc1OC (stereo not given) | 128% | – | –
34 | COc1ccc(-n2c(O)c(/C=N/NS(=O)(=O)c3cc(C)ccc3C)c3ccccc3c2=O)cc1OC | -99.5% | 3.66 µM [falling, partial curve] | 2.31 µM [rising, partial curve, poor fit]
35 | Cc1cc(C)cc(-n2ncc3c2CCCC3NC(=O)c2cc(C)[nH]n2)c1 (stereo not given) | -43.7% | – | 7.31 µM [falling, partial curve]
36 | Cc1ccc(NC(=O)NC(=O)CSc2n[nH]c(N)n2)c(C)c1 | 12.3% | – | 6.51 µM [falling, single point]
37 | S=C(NCc1ccccc1)NCc1ccccn1 | 31.8% | – | 16.4 µM [rising, single point]
38 | Cn1ncc([N+](=O)[O-])c1C(=O)NCc1ccccc1 | 28.4% | 2.06 µM [rising, partial curve] | –
39 | CN(C)S(=O)(=O)c1cccc(N=c2scc(-c3ccc4c(c3)NC(=O)CO4)n2CC2CCCO2)c1 (stereo not given) | -3.02% | 29.1 µM [rising, single point] | –
40 | O=[N+]([O-])c1cc(S(=O)(=O)N2CCCC2)ccc1NCCc1ccccc1 | 0.392% | – | –
41 | O=C1COc2ccc(S(=O)(=O)N3CCN(c4cccc(C(F)(F)F)c4)CC3)cc2N1 | -7.96% | – | –
42 | Cc1ccc(OCC(=O)Oc2cccc(C)c2C)cc1 | 18.6% | 0.116 µM [falling, full curve, poor fit] | –

Row | SMILES | cell number change | AC50 [1] | AC50 [2]
43 | CC(NCc1ccccc1)C1COc2ccccc2O1 (stereo not given) | 11.9% | 0.184 µM [falling, full curve] | –
44 | CN1c2ccsc2/C(=N/Nc2ccc(F)cc2)CS1(=O)=O | 12.9% | – | –
45 | COc1ccccc1OCC(=O)Nc1ccc(N2CCCCC2)cc1 | 67.2% | 11.6 µM [rising, partial curve] | 3.66 µM [rising, full curve]
46 | C(=C\c1ccco1)/C1=NN(c2ccccc2)C(c2ccco2)C1 (stereo not given) | -47.2% | 14.6 µM [falling, partial curve, poor fit] | 18.4 µM [falling, partial curve, poor fit]
47 | OCCc1ccc(-c2ccc(Cl)cc2)o1 | -7.34% | – | 0.231 µM [falling, full curve, poor fit]
48 | OC[C@H]1O[C@@H](n2cnc3c(NC4CCCC4)nc(Cl)nc32)[C@H](O)[C@@H]1O | 11.9% | 29.1 µM [rising, single point] | –
49 | CCOc1ccc(NC(=O)CSc2nc(N)c(-c3ccccc3)c(=O)[nH]2)cc1 | -18.3% | – | –
50 | c1ccc(-c2ccc(CN3C[C@@H]4C(c5ccccc5)C5(c6cccnc6)CC4(C5)[C@H]3c3ccccc3)cc2)cc1 (stereo not given in full) | – | 0.58 µM [rising, full curve, poor fit] | –
51 | CCOC(=O)c1ccc[n+](CC(=O)c2ccc(OC)cc2)c1 | 6.26% | – | 6.51 µM [rising, single point]
52 | COCCn1c(C)cc(C(=O)COC(=O)c2ccc3c(c2)NC(=O)CS3)c1C | 40% | 29.1 µM [rising, single point] | 23.1 µM [rising, partial curve, poor fit]
53 | CCN1CCN(C(=O)c2cc3c(=O)n4ccccc4nc3n2Cc2ccccc2)CC1 | – | – | 6.51 µM [rising, single point]
54 | Cc1cc(NC(=O)CSCC(=O)Nc2nc3ccccc3s2)no1 | 12.1% | 0.231 µM [rising, full curve, poor fit] | –
55 | Cc1ccc(C(C)C)c(OCCNCc2ccccc2)c1 | -59.1% | – | 20.6 µM [falling, single point]
56 | CC(C)NC(=S)Nc1ccc(S(=O)(=O)Nc2ncccn2)cc1 | -2.52% | 0.82 µM [rising, full curve] | –
57 | CCCC(=O)Nc1ccc(S(=O)(=O)Nc2cc(OC)nc(OC)n2)cc1 | – | 0.116 µM [rising, full curve, poor fit] | –
58 | CCc1ccc(C(=O)N2CCC(c3nc4ccccc4s3)CC2)cc1 | 58.1% | 23.1 µM [rising, partial curve] | –
59 | Cc1cc(NC(=O)CCC(=O)N(Cc2ccco2)C2(C(=O)NC3CCCC3)CCCCC2)no1 | 13.3% | 0.00517 µM [falling, full curve, poor fit] | –
60 | NS(=O)(=O)c1ccc(CCNS(=O)(=O)c2ccc3c(c2)NC(=O)CO3)cc1 | -23.3% | – | –
61 | CC1CCCN(c2oc(-c3cccc4ccccc34)nc2C#N)C1 (stereo not given) | 38.9% | 0.291 µM [rising, full curve, poor fit] | 13 µM [rising, partial curve]
62 | Cc1sc2ncnc(SCC(=O)NCC3CCCO3)c2c1C (stereo not given) | 31.3% | 1.84 µM [rising, partial curve] | 0.00146 µM [rising, full curve, poor fit]

Entries of single compounds, quoted from the list.
CCOc1ccc(NC(=O)CSc2nc(N)c(-c3ccccc3)c(=O)[nH]2)cc1 in the list: cell number change: -18.3%
CCc1ccc(C(=O)N2CCC(c3nc4ccccc4s3)CC2)cc1 in the list: cell number change: 58.1%; AC50 [1]: 23.1 µM [rising, partial curve]
Cc1cc(NC(=O)CSCC(=O)Nc2nc3ccccc3s2)no1 in the list: cell number change: 12.1%; AC50 [1]: 0.231 µM [rising, full curve, poor fit]
CC(C)NC(=S)Nc1ccc(S(=O)(=O)Nc2ncccn2)cc1 in the list: cell number change: -2.52%; AC50 [1]: 0.82 µM [rising, full curve]

Reference: PubChem BioAssay AID2685 (National Center for Advancing Translational Sciences (NCATS), 2010)
